Test results taken from article doi:10.1101/411223 (bioRxiv, 2018).
These are yes or no findings as the source states them, for the method shown. Some binding calls cover weakened binding; strength is not graded here. Each block holds one binder with its values, some of them ahead of it.

Legend:
[1] = target: T1, Kap114p (S. cerevisiae), P53067; test: AUC; details: remark: other sources report otherwise
T1 chain: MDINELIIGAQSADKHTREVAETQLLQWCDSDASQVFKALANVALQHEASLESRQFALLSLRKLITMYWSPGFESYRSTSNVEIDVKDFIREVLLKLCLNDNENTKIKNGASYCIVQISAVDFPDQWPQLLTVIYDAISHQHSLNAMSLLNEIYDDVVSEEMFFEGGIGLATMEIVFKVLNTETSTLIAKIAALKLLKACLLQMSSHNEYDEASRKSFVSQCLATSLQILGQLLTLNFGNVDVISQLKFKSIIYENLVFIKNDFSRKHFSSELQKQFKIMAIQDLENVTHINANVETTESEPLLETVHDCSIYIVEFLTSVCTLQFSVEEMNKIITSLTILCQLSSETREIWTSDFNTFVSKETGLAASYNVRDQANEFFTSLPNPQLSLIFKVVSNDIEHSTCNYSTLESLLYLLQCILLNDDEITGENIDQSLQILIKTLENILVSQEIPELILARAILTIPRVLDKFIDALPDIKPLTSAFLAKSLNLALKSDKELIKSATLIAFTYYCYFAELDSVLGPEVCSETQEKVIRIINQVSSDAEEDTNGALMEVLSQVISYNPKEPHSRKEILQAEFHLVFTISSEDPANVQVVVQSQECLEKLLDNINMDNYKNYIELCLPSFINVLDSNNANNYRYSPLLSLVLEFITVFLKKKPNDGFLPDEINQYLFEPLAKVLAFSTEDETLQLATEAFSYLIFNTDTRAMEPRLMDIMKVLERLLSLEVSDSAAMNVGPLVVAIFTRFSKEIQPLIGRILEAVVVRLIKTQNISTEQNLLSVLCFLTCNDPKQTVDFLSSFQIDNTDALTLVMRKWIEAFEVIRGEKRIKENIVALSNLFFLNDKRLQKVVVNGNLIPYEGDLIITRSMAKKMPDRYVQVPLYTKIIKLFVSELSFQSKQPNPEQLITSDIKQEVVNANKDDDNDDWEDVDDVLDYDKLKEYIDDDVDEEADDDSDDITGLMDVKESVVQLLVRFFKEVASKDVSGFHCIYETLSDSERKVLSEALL

[2] = target: GST-fused HEAT19 loop (899-956) (S. cerevisiae) (UniProt P53067); test: pull-down

- binding [1]: no binding (tested: 0.86 mg/ml)
B1: Kap114p, P53067 1-1004 (natural protein)
chain: T1 chain

- binding [2]: binds weakly
B2: yTBP (61-240) (domain or fragment, S. cerevisiae, UniProt P13393 61-240, looked up)
chain: SGIVPTLQNIVATVTLGCRLDLKTVALHARNAEYNPKRFAAVIMRIREPKTTALIFASGKMVVTGAKSEDDSKLASRKYARIIQKIGFAAKFTDFKIQNIVGSCDVKFPIRLEGLAFSHGTFSSYEPELFPGLIYRMVKPKIVLLIFVSGKIVLTGAKQREEIYQAFEAIYPVLSEFRKM
